{
  "sequences": {"note": "The chains behind the UniProt entries cited, without tags or fusion partners. Residues count along the entry.", "UniProt Q86TM6": "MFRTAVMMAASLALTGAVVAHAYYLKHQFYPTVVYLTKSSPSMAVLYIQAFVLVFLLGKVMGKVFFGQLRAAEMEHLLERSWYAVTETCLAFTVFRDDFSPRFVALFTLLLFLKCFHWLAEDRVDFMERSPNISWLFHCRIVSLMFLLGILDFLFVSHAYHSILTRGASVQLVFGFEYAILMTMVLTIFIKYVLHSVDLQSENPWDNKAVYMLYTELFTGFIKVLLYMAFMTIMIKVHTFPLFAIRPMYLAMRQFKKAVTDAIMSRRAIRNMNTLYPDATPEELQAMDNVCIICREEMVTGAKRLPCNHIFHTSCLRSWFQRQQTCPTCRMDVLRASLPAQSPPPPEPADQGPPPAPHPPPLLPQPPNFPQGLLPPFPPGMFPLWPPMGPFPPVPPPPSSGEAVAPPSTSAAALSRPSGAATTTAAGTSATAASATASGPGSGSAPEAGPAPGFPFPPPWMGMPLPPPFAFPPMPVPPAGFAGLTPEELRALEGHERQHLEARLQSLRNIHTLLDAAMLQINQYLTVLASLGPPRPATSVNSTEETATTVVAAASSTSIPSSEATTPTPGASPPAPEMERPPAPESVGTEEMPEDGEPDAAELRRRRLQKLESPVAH", "UniProt O75460, residues 19-977": "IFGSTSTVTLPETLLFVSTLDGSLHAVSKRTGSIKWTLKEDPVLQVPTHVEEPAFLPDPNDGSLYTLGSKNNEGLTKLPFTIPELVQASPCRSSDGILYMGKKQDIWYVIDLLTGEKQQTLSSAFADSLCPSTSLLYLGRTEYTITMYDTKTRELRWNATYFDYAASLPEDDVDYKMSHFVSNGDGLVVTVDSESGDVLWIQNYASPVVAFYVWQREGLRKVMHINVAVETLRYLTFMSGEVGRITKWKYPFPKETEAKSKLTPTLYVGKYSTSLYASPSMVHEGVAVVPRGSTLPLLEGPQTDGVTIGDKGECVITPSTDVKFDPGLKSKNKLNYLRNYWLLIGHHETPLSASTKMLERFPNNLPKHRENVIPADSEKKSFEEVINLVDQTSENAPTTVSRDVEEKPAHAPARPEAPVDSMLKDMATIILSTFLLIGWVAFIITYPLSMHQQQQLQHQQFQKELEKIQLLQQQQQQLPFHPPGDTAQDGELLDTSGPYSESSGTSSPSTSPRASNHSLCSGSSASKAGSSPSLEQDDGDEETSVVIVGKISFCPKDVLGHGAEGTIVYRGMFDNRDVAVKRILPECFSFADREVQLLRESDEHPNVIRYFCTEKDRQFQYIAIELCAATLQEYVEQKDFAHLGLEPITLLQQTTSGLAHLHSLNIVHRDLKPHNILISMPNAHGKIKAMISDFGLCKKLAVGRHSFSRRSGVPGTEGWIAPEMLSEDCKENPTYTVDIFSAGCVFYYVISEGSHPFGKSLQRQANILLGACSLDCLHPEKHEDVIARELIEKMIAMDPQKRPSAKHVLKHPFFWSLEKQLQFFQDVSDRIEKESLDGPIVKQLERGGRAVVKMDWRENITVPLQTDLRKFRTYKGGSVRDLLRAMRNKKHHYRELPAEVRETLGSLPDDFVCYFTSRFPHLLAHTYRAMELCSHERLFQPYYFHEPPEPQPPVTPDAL", "UniProt P18850": "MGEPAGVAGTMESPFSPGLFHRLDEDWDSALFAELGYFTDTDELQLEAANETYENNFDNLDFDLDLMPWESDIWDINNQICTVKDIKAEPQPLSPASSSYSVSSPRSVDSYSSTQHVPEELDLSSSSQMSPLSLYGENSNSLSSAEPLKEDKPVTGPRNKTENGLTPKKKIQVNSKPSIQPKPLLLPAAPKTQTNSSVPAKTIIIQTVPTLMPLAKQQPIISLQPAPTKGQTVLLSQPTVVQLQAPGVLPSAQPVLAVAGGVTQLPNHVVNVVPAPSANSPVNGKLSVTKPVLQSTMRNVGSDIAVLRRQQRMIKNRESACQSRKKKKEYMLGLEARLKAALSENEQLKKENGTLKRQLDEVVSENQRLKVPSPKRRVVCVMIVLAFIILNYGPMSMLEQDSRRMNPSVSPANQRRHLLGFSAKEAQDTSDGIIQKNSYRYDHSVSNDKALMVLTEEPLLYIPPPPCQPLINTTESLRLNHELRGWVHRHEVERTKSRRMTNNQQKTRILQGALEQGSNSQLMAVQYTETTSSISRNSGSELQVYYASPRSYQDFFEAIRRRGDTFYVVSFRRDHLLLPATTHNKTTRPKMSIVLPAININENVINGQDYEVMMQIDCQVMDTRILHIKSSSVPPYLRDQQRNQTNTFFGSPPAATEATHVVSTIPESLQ"},
  "source": "paper PMC6269493",
  "key": {"[1]": {"biological_target": "endogenous HRD1 protein (human (endogenous in H460)) (UniProt Q86TM6)", "assay": "co-IP; endogenous HRD1 precipitated with anti-HRD1 antibody in H460 control, TUSC3 KO or TUSC3-reconstituted TUSC3 KO cells; Western blot for substrates; interactions enhanced in TUSC3 KO, decreased on TUSC3 overexpression"}, "HRD1-Flag (Synoviolin)": {"biological_target": "HRD1-Flag (Synoviolin) (UniProt Q86TM6)", "assay": "co-IP; pcDNA-TUSC3-V5-His or its mutants (TUSC3-CCSS, Del-TUSC3) co-transfected with pCMV6-HRD1-Flag in HEK293 cells; IP and inverse IP with Western blot"}},
  "note": "These are yes or no findings as the source states them, for the method shown. Binding seen in cells or lysates may run through a third protein. Some results given as binding are weak or reduced against the parent protein; the word gives no strength. For part of these data: Tags and fused reporters may be left off the sequences shown.",
  "data": [
    {"molecule": "IRE1α (endogenous, H460) (from UniProt O75460 19-977)", "values": [
      {"measurement": "binding", "setting": "[1]", "value": "binds"}
    ]},
    {"molecule": "ATF6α (endogenous, H460) (from UniProt P18850 1-670)", "values": [
      {"measurement": "binding", "setting": "[1]", "value": "no binding"}
    ]},
    {"molecule": "TUSC3-V5-His (wild type Tumor Suppressor Candidate 3) (protein, UniProt Q13454 42-348) QKKKENLLAEKVEQLMEWSSRRSIFRMNGDKFRKFIKAPPRNYSMIVMFTALQPQRQCSVCRQANEEYQILANSWRYSSAFCNKLFFSMVDYDEGTDVFQQLNMNSAPTFMHFPPKGRPKRADTFDLQRIGFAAEQLAKWIADRTDVHIRVFRPPNYSGTIALALLVSLVGGLLYLRRNNLEFIYNKTGWAMVSLCIVFAMTSGQMWNHIRGPPYAHKNPHNGQVSYIHGSSQAQFVAESHIILVLNAAITMGMVLLNEAATSKGDVGKRRIICLVGLGLVVFFFSFLLSIFRSKYHGYPYSDLDFE", "values": [
      {"measurement": "binding", "setting": "HRD1-Flag (Synoviolin)", "value": "binds"}
    ]}
  ]
}
